Here are results for 13 targets from the supplement of paper PMC6411743.

Protein sequences, listed by entry. Tags and fused reporters are not part of them. Lines headed by an entry give the natural chain unless they say otherwise; changes in a name come on top.
UniProt P61421, whole entry: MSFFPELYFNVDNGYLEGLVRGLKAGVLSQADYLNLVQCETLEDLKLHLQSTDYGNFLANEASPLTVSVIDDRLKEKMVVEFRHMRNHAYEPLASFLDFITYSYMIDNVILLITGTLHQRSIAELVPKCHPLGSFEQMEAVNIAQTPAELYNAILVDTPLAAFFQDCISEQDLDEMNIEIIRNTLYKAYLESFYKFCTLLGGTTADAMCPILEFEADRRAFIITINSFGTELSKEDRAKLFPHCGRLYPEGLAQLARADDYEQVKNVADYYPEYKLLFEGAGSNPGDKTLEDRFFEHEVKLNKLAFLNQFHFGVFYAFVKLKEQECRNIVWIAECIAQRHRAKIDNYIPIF
UniProt P43250, whole entry, looked up: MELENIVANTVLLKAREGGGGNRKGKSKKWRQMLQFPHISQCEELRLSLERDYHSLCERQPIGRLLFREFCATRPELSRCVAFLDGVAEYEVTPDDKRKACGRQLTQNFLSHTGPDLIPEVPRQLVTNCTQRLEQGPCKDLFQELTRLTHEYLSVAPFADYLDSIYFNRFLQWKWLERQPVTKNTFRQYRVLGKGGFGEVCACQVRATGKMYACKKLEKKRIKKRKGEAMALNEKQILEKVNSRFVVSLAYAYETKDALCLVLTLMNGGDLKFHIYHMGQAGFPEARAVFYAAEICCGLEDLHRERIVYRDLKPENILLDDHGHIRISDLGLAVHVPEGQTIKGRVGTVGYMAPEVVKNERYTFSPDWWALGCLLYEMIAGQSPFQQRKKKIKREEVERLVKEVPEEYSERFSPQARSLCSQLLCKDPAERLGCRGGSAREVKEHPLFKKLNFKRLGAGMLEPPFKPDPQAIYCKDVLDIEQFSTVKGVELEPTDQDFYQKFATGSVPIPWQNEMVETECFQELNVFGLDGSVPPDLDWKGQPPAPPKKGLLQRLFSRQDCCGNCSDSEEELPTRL
UniProt Q9BTT0: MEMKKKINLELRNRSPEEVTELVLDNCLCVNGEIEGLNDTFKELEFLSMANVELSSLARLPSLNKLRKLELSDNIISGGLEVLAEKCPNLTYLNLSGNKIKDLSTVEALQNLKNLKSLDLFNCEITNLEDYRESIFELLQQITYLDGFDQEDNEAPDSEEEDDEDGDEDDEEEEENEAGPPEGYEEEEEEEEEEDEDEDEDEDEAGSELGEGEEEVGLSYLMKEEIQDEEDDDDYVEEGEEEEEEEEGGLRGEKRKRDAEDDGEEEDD
UniProt Q9NRL3: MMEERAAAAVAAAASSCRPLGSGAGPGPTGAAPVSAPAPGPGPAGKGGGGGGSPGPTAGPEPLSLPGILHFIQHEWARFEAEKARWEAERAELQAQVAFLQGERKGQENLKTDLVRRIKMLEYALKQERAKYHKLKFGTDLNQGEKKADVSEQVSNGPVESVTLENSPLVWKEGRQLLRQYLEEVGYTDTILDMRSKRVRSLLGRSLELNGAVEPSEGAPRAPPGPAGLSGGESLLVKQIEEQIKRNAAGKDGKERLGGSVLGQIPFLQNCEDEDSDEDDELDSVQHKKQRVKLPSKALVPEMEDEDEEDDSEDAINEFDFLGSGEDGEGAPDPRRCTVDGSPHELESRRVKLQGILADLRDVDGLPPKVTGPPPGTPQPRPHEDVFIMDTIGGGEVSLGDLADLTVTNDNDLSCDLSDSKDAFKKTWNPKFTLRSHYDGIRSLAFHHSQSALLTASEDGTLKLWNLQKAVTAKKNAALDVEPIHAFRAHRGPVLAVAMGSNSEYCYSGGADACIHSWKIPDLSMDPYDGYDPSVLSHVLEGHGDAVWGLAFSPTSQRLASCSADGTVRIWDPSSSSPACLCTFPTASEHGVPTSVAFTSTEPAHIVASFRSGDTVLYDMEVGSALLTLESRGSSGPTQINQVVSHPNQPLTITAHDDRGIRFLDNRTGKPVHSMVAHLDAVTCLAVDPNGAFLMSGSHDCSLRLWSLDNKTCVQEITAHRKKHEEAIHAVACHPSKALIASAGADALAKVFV
UniProt O43903, whole entry: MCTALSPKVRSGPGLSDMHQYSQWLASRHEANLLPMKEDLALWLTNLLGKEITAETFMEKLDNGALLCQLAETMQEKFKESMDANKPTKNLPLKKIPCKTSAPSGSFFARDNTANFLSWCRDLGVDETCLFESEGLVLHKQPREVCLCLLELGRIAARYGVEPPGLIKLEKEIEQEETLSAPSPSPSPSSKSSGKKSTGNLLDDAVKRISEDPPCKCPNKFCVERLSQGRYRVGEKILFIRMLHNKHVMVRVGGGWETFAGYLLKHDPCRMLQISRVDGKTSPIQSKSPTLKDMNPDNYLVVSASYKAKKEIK
UniProt Q76I76: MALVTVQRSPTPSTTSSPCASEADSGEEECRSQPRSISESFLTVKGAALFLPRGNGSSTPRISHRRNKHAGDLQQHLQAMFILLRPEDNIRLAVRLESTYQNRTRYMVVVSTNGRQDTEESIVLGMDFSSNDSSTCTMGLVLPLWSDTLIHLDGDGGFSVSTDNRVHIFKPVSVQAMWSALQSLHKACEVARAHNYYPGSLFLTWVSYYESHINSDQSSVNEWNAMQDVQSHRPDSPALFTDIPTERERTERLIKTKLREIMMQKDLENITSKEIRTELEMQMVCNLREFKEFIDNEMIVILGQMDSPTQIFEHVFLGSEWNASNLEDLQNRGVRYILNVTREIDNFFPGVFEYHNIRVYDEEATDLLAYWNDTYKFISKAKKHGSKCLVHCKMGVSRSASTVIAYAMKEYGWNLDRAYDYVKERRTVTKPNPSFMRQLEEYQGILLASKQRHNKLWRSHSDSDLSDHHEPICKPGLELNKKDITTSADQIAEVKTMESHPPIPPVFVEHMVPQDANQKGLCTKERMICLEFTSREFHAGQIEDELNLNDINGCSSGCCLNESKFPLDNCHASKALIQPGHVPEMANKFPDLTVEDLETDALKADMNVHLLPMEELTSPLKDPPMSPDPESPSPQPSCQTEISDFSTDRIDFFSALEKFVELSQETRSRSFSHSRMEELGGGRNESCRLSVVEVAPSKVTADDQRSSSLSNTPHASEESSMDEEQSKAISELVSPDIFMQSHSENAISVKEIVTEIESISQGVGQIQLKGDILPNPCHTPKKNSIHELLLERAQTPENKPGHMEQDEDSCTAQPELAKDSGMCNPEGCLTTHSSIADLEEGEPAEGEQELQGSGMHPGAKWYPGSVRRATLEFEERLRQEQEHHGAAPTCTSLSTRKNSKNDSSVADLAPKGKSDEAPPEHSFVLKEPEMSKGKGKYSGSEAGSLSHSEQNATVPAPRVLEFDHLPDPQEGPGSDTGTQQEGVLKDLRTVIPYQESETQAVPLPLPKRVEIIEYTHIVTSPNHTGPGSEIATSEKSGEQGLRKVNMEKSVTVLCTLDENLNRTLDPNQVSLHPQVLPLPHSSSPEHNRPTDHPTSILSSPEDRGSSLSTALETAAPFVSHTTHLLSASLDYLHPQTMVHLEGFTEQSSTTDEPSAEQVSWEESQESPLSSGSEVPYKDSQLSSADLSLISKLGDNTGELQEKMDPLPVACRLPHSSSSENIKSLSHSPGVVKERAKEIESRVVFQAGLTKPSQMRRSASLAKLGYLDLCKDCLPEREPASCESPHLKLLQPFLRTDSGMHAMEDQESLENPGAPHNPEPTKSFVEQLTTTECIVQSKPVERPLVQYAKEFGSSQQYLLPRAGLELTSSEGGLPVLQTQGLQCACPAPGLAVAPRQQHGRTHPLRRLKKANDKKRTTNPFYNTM
UniProt Q9BRP4: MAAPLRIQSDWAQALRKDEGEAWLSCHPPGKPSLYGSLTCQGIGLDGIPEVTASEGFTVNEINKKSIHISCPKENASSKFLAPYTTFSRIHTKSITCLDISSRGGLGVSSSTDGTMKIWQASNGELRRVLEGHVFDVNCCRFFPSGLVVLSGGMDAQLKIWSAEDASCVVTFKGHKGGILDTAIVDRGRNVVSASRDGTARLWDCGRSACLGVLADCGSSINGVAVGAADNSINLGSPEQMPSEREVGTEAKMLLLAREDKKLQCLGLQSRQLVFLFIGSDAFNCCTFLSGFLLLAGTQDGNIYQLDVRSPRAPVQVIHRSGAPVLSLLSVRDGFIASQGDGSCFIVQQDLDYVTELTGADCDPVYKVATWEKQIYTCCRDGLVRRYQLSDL
UniProt Q15366, whole entry: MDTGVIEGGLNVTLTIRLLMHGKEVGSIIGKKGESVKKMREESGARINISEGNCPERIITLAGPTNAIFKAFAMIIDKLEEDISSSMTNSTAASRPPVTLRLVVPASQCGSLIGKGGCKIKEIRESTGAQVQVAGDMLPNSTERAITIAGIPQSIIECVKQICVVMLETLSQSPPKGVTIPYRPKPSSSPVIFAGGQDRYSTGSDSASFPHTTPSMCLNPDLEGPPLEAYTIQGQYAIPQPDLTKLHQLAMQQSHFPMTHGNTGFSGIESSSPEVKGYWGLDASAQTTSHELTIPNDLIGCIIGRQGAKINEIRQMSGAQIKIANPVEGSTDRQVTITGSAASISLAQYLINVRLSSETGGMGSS
UniProt Q7L1V2: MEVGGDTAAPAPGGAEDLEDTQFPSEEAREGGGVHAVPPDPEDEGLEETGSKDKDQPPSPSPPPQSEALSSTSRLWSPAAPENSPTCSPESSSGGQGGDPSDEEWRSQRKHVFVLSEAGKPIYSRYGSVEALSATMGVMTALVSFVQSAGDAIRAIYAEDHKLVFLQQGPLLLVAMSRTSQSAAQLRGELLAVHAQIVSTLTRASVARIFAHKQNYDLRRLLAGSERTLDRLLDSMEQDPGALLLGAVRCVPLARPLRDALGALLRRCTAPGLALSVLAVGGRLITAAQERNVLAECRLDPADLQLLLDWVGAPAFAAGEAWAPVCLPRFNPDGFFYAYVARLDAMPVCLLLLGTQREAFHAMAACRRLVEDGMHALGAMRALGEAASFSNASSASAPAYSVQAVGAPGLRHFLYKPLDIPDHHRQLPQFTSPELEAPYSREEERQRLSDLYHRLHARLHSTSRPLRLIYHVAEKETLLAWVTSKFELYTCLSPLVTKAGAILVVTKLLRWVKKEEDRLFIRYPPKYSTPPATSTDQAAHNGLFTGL
UniProt Q9Y6M9, whole entry: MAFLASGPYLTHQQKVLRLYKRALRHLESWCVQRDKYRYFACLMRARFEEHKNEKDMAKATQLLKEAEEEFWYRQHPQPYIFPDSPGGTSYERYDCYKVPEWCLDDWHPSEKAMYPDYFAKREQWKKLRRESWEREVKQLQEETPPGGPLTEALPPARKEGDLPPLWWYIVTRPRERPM

Compound in the experiment: Nc1nc2c(ncn2[C@@H]2O[C@H](COP(=O)(O)OP(=O)(O)OP(=O)(O)O)[C@@H](O)[C@H]2O)c(=O)[nH]1 [guanosine triphosphate]
The experiment is described as follows: NP40-soluble protein abundance relative to vehicle (solubility fold change) (ratio); higher = more soluble protein in presence of GTP. The method in brief: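 In three independent experiments, Jurkat crude lysate made by Dounce homogenisation was treated for 10 min at room temperature and then 3 min at 37 °C with eight concentrations ranging from 0.1 to 10 mM. It was then solubilised with 0.8% NP40 plus benzonase for 60 min at 4 °C and ultracentrifuged. The supernatant was TMT-labelled for LC-MS/MS, and each value is the fold change against the detergent-processed vehicle for the same replicate, using vsn-normalised intensities.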

± gives the standard deviation of the averaged measurements. This is one part of the list.

As to “F8VWS0 and related entries (UniProt P05388)”, the NP40-soluble protein abundance by setting is: (concentration: 0.1mM) 0.877 ± 0.088; (concentration: 0.5mM) 0.897 ± 0.048; (concentration: 1mM) 0.883 ± 0.076; (concentration: 2mM) 0.846 ± 0.11; (concentration: 4mM) 0.811 ± 0.13; (concentration: 6mM) 0.776 ± 0.13. In addition, the NP40-soluble protein abundance (concentration: 8mM) is 0.677 ± 0.096 and the NP40-soluble protein abundance (concentration: 10mM) is 0.788 ± 0.13.
With “F5GYQ1 and related entries (UniProt P61421)”, the NP40-soluble protein abundance turned out to be 1.06 ± 0.036 (concentration: 0.1mM); 1.12 ± 0.12 (concentration: 0.5mM); 1.07 ± 0.13 (concentration: 1mM); 1.09 ± 0.13 (concentration: 2mM); 1.08 ± 0.11 (concentration: 4mM); 1.1 ± 0.15 (concentration: 6mM). Moreover, the NP40-soluble protein abundance by setting is: (concentration: 8mM) 1.07 ± 0.12; (concentration: 10mM) 1.03 ± 0.11.
Regarding “F8W9W2 and related entries (UniProt P43250)”, the NP40-soluble protein abundance runs as follows: (concentration: 0.1mM) 1.06 ± 0.059; (concentration: 0.5mM) 1.11 ± 0.026; (concentration: 1mM) 1.08 ± 0.053; (concentration: 2mM) 1.1 ± 0.036; (concentration: 4mM) 1.11 ± 0.035; (concentration: 6mM) 1.11 ± 0.06. Also, the NP40-soluble protein abundance is 1.1 ± 0.03 (concentration: 8mM) and 1.09 ± 0.069 (concentration: 10mM).
As to “E9PPH5 and related entries (UniProt Q9BTT0)”, the NP40-soluble protein abundance was determined as 0.838 ± 0.058 (concentration: 0.1mM); 0.874 ± 0.062 (concentration: 0.5mM); 0.978 ± 0.05 (concentration: 1mM); 0.94 ± 0.045 (concentration: 2mM); 0.937 ± 0.056 (concentration: 4mM); 0.946 ± 0.037 (concentration: 6mM). Besides, the NP40-soluble protein abundance came out at 0.958 ± 0.038 (concentration: 8mM) and 1.08 ± 0.079 (concentration: 10mM).
Regarding “F5GYK2 and related entries (UniProt Q9NRL3)”, the NP40-soluble protein abundance is, setting by setting: (concentration: 0.1mM) 1.03 ± 0.025; (concentration: 0.5mM) 1.03 ± 0.093; (concentration: 1mM) 1.05 ± 0.045; (concentration: 2mM) 1.04 ± 0.055; (concentration: 4mM) 1.07 ± 0.027; (concentration: 6mM) 1.03 ± 0.019. In addition, the NP40-soluble protein abundance reads like this: (concentration: 8mM) 1.1 ± 0.071; (concentration: 10mM) 1.08 ± 0.094.
For “E9PRR5 and related entries (UniProt O43903)”, the NP40-soluble protein abundance is, setting by setting: (concentration: 0.1mM) 0.956 ± 0.014; (concentration: 0.5mM) 0.957 ± 0.042; (concentration: 1mM) 0.94 ± 0.02; (concentration: 2mM) 0.903 ± 0.074; (concentration: 4mM) 0.894 ± 0.05; (concentration: 6mM) 0.911 ± 0.057. The NP40-soluble protein abundance came out at 0.944 ± 0.069 (concentration: 8mM) and 0.963 ± 0.071 (concentration: 10mM).
“E7ERU0 and related entries (UniProt Q03001)”: the NP40-soluble protein abundance reads like this: (concentration: 0.1mM) 1.03 ± 0.2; (concentration: 0.5mM) 1.03 ± 0.22; (concentration: 1mM) 0.991 ± 0.12; (concentration: 2mM) 1.01 ± 0.29; (concentration: 4mM) 0.99 ± 0.3; (concentration: 6mM) 0.935 ± 0.19. In addition, the NP40-soluble protein abundance runs as follows: (concentration: 8mM) 0.947 ± 0.12; (concentration: 10mM) 0.966 ± 0.18.
With “F5H527 and related entries (UniProt Q76I76)”, the NP40-soluble protein abundance turned out to be 1.01 ± 0.015 (concentration: 0.1mM); 1.05 ± 0.035 (concentration: 0.5mM); 1.1 ± 0.04 (concentration: 1mM); 1.03 ± 0.033 (concentration: 2mM); 1.01 ± 0.061 (concentration: 4mM); 1.03 ± 0.05 (concentration: 6mM). Further, the NP40-soluble protein abundance turned out to be 1.07 ± 0.035 (concentration: 8mM) and 1.03 ± 0.03 (concentration: 10mM).
Take “F8WCU9 and related entries (UniProt Q68CP9)”: the NP40-soluble protein abundance was found to be 1.03 ± 0.015 (concentration: 0.1mM); 1.09 ± 0.024 (concentration: 0.5mM); 1.15 ± 0.056 (concentration: 1mM); 1.25 ± 0.12 (concentration: 2mM); 1.34 ± 0.15 (concentration: 4mM); 1.4 ± 0.18 (concentration: 6mM). In addition, the NP40-soluble protein abundance is, setting by setting: (concentration: 8mM) 1.46 ± 0.24; (concentration: 10mM) 1.45 ± 0.23.
On to “F5H0C4 and related entries (UniProt Q9BRP4)”, for which the NP40-soluble protein abundance was found to be 1.14 ± 0.12 (concentration: 0.1mM); 1.11 ± 0.18 (concentration: 0.5mM); 1.07 ± 0.1 (concentration: 1mM); 1.12 ± 0.2 (concentration: 2mM); 1.11 ± 0.12 (concentration: 4mM); 1.09 ± 0.16 (concentration: 6mM). Besides, the NP40-soluble protein abundance is 1.1 ± 0.11 (concentration: 8mM) and 1.07 ± 0.14 (concentration: 10mM).
As to “F8VZX2 and related entries (UniProt Q15366)”, the NP40-soluble protein abundance turned out to be 0.898 ± 0.042 (concentration: 0.1mM); 0.901 ± 0.064 (concentration: 0.5mM); 0.922 ± 0.062 (concentration: 1mM); 0.909 ± 0.094 (concentration: 2mM); 0.875 ± 0.085 (concentration: 4mM); 0.89 ± 0.084 (concentration: 6mM). In addition, the NP40-soluble protein abundance runs as follows: (concentration: 8mM) 0.872 ± 0.08; (concentration: 10mM) 0.877 ± 0.087.
With “E7EW32 and related entries (UniProt Q7L1V2)”, the NP40-soluble protein abundance runs as follows: (concentration: 0.1mM) 1.04 ± 0.11; (concentration: 0.5mM) 1.09 ± 0.089; (concentration: 1mM) 0.964 ± 0.1; (concentration: 2mM) 0.978 ± 0.13; (concentration: 4mM) 0.998 ± 0.04; (concentration: 6mM) 0.992 ± 0.071. The NP40-soluble protein abundance runs as follows: (concentration: 8mM) 0.989 ± 0.11; (concentration: 10mM) 0.944 ± 0.12.
“E9PH64 and related entries (UniProt Q9Y6M9)”: the NP40-soluble protein abundance (concentration: 0.1mM) was determined as 1.02 ± 0.14; the NP40-soluble protein abundance (concentration: 0.5mM) was determined as 0.987 ± 0.088; the NP40-soluble protein abundance (concentration: 1mM) was 1.11 ± 0.14; the NP40-soluble protein abundance (concentration: 2mM) is 1.11 ± 0.053; the NP40-soluble protein abundance (concentration: 4mM) was found to be 1.1 ± 0.086; the NP40-soluble protein abundance (concentration: 6mM) was 1.23 ± 0.072. Besides, the NP40-soluble protein abundance stood at 1.23 ± 0.11 (concentration: 8mM) and 1.34 ± 0.086 (concentration: 10mM).
